Data taken from PubChem BioAssay AID652054 (National Center for Advancing Translational Sciences (NCATS), 2013).
The whole screen tested about 360,000 compounds, of which about 9,100 (2.5%) were called active. The shares of active, inactive and inconclusive entries below differ from those in the screen. Cut-off read from the data, not from the text of the source: active = max response below about -50%; inconclusive = no clear call, values can overlap the other calls; inactive = above that.

The chains behind the UniProt entries cited, without tags or fusion partners.
UniProt P35462, whole entry, looked up: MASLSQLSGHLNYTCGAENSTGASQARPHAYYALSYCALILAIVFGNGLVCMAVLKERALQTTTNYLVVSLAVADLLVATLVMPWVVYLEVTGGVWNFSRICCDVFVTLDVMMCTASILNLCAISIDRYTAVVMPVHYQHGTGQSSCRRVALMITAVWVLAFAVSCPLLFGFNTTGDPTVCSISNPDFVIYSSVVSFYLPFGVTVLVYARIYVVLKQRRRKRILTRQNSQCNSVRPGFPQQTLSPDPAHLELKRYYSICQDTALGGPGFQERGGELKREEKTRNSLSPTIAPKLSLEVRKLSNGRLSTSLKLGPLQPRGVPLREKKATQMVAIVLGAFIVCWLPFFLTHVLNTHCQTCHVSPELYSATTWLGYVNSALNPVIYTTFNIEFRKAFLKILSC

The compounds below were run against D(3) dopamine receptor (Homo sapiens) (UniProt P35462) (assay: qHTS of D3 Dopamine Receptor Antagonist: qHTS). Settings: D3R cells, DiscoveRx beta-arrestin luminescence, antagonist mode; active compounds read low.
Summary of the method: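 Cells expressing the human receptor were seeded at 1500 cells/well, incubated overnight at 37 degrees C in 5% CO2, then exposed to library compounds with dopamine controls for 90 minutes at 37 degrees C before luminescent detection.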
% is set by controls: 0 for no effect and ±100 for the full control effect.

Q: C[C@@H]1CCCCO[C@H](CN(C)Cc2ccc3c(c2)OCO3)[C@H](C)CN([C@@H](C)CO)C(=O)c2cc(NC(=O)c3ccccc3)ccc2O1 was tested. Which max response, negative = inhibition did it give?
A: The max response, negative = inhibition was inconclusive: -37.3%.

Q: Which max response, negative = inhibition does the source give for CCOC(=O)c1ccc(COC(=O)CNC(=O)CNC(=O)Cc2ccccc2)cc1 here?
A: Its max response, negative = inhibition is inactive: 9.12%.

Q: Which max response, negative = inhibition does the source give for Cn1cccc1/C=C(/C#N)C(N)=S here?
A: The max response, negative = inhibition was active: -63.3%.

Q: Which max response, negative = inhibition does the source give for Cc1cnc(NC(=O)CSc2nnc(-c3ccncc3)n2C2CCCCC2)s1 here?
A: Its max response, negative = inhibition is inconclusive: -37.8%.

Q: CCOc1ccc(N=C2NC(=O)S/C2=C\c2ccc(O)cc2)cc1 was tested. Which max response, negative = inhibition did it give?
A: The max response, negative = inhibition was inconclusive: -34.3%.

Q: With COc1ccc(CC2(CO)CCN(Cc3cnn(C)c3C)CC2)cc1 as the compound, how does the max response, negative = inhibition read?
A: The max response, negative = inhibition was inconclusive: -34.3%.

Q: With Cn1nnc2sc3c(c2c1=O)CCCC3 as the compound, how does the max response, negative = inhibition read?
A: The max response, negative = inhibition was inconclusive: -31.2%.

Q: Which max response, negative = inhibition does the source give for O=[N+]([O-])c1ccc(NCCNc2ccc(Cl)nn2)cc1 here?
A: Its max response, negative = inhibition is active: -73.8%.

Q: For COc1ccccc1NC(=O)c1cccc(N2C(=O)C3C4C=CC(C4)C3C2=O)c1 (stereo unspecified), which max response, negative = inhibition is on record?
A: Its max response, negative = inhibition is inactive: -4%.

Q: How did the max response, negative = inhibition turn out when Cc1ccc(-c2cc(C(=O)Nc3c(C)n(C)n(-c4ccccc4)c3=O)[nH]n2)c(O)c1C was run?
A: The max response, negative = inhibition was inactive: -17.5%.

Q: Cc1ccc(NC(=O)COc2ccc(/C=N/NC(=O)CSCc3ccccc3)cc2)cc1 was tested. Which max response, negative = inhibition did it give?
A: The max response, negative = inhibition was inactive: 18.5%.

Q: O=S(=O)(c1ccccc1Cl)N1CCCC(c2nc(-c3cccnc3)no2)C1 (stereo unspecified) was tested. Which max response, negative = inhibition did it give?
A: The max response, negative = inhibition was inconclusive: -38.6%.

Q: Cn1c(Cn2c(C(F)(F)F)nc3ccccc32)nc2ccccc21 was tested. Which max response, negative = inhibition did it give?
A: Its max response, negative = inhibition is inactive: 38.9%.

Q: O=C/C=C/c1c(-c2ccccc2)cc2oc3ccccc3cc1-2 was tested. Which max response, negative = inhibition did it give?
A: Its max response, negative = inhibition is active: -66.3%.

Q: With CN(C)CCCCOc1ccccc1-c1ccccc1 as the compound, how does the max response, negative = inhibition read?
A: The max response, negative = inhibition was active: -76.8%.

Q: Which max response, negative = inhibition does the source give for CCC(C)NCc1ccc(C(=O)OC)o1 (stereo unspecified) here?
A: Its max response, negative = inhibition is inconclusive: -39%.

Q: Which max response, negative = inhibition does the source give for COc1ccc(CNC(=O)c2c(C)oc3c2C(=O)c2ccccc2C3=O)cc1 here?
A: The max response, negative = inhibition was active: -71.6%.

Q: How did the max response, negative = inhibition turn out when O=C(O)c1ccc(N2CCCCCC2)c(N2C(=O)c3ccccc3C2=O)c1 was run?
A: The max response, negative = inhibition was inconclusive: -38.9%.

Q: How did the max response, negative = inhibition turn out when CC(C)(C)CNC(CO)C12CC3CC(CC(C3)C1)C2 (stereo unspecified) was run?
A: Its max response, negative = inhibition is active: -54.4%.

Q: How did the max response, negative = inhibition turn out when CN(c1ccc(F)cc1)S(=O)(=O)c1ccc(Cl)c(C(=O)Nc2ccc3c(c2)CCC3)c1 was run?
A: The max response, negative = inhibition was inconclusive: -31.7%.

Q: For O=C(CN1c2cccc3cccc(c23)S1(=O)=O)Nc1ccccc1F, which max response, negative = inhibition is on record?
A: Its max response, negative = inhibition is inconclusive: -31.1%.

Q: COC(=O)Cn1ncc2c(C)n(Cc3ccccc3)c(C)c2c1=O was tested. Which max response, negative = inhibition did it give?
A: Its max response, negative = inhibition is inconclusive: -32.3%.

Q: Cc1ccc(N2C(=O)N3[C@H](c4cccc(C)c4)[C@@H]4C(=O)N(Cc5ccccc5)C(=O)[C@@H]4[C@]3(C)C2=O)cc1 was tested. Which max response, negative = inhibition did it give?
A: The max response, negative = inhibition was inconclusive: -31.3%.

Q: With Cc1cccc(C(=O)N2CCN(c3ccc([N+](=O)[O-])c(N4CCOCC4)c3)CC2)c1 as the compound, how does the max response, negative = inhibition read?
A: Its max response, negative = inhibition is inconclusive: -46.7%.

Q: For CCC(=O)Nc1nnc(SCC(=O)Nc2ccc3c(c2)OCO3)s1, which max response, negative = inhibition is on record?
A: The max response, negative = inhibition was inconclusive: -47.4%.

Q: How did the max response, negative = inhibition turn out when CC(C)N1C(=O)S/C(=C\c2ccc(-c3ccc(Cl)c(C(=O)O)c3)o2)C1=O was run?
A: Its max response, negative = inhibition is inconclusive: -46.7%.

Q: For COc1ccc(CCNS(=O)(=O)c2ccc3c(c2)CCN3C(=O)C2CC2)cc1OC, which max response, negative = inhibition is on record?
A: The max response, negative = inhibition was inconclusive: -42.8%.

Q: For O=C(Oc1ccccc1/C=C\C(=O)c1cc2ccccc2o1)c1cccc(F)c1, which max response, negative = inhibition is on record?
A: The max response, negative = inhibition was inconclusive: -31.1%.

Q: Which max response, negative = inhibition does the source give for CC(C)(C)c1ccccc1OCC(O)CN1CCN(c2ccccn2)CC1 (stereo unspecified) here?
A: Its max response, negative = inhibition is inconclusive: -41.4%.

Q: Which max response, negative = inhibition does the source give for COc1ccc(CC(=O)NC(C)c2nnc(SCC(=O)c3ccc(Br)cc3)n2C)cc1 (stereo unspecified) here?
A: Its max response, negative = inhibition is active: -55.6%.

Q: How did the max response, negative = inhibition turn out when C=CCNC(=O)/C(C#N)=C/c1ccc(C)o1 was run?
A: Its max response, negative = inhibition is inactive: 13.6%.

Q: With CCCCCC(O)(CCN1CCCCC1)c1ccc(OCC)cc1 (stereo unspecified) as the compound, how does the max response, negative = inhibition read?
A: The max response, negative = inhibition was inactive: -25.4%.

Q: Which max response, negative = inhibition does the source give for C/C(=N\NC(=O)C1COc2ccccc2O1)c1ccccn1 (stereo unspecified) here?
A: The max response, negative = inhibition was inconclusive: -48.5%.

Q: For Cc1cc(C)nc(SCC(=O)N/N=C/c2cccc([N+](=O)[O-])c2)n1, which max response, negative = inhibition is on record?
A: Its max response, negative = inhibition is inactive: 11.3%.

Q: How did the max response, negative = inhibition turn out when CCOC(=O)c1nc(C)sc1-c1ccnn1S(=O)(=O)c1cccc(Cl)c1 was run?
A: Its max response, negative = inhibition is inconclusive: -31.9%.

Q: NC(=S)NN=Cc1ccc(OC(=O)COc2cc(Cl)c(Cl)cc2Cl)cn1 was tested. Which max response, negative = inhibition did it give?
A: The max response, negative = inhibition was inactive: 0.559%.

Q: How did the max response, negative = inhibition turn out when CCN(CC)CCOC(=O)/C=C/c1ccccc1 was run?
A: Its max response, negative = inhibition is active: -63%.

Q: CCN1C/C(=C\c2cccc([N+](=O)[O-])c2)C(=O)/C(=C/c2cccc([N+](=O)[O-])c2)C1 was tested. Which max response, negative = inhibition did it give?
A: Its max response, negative = inhibition is inconclusive: -50%.

Q: Which max response, negative = inhibition does the source give for Cc1cc(NCCN2CCOCC2)n2c(nc3ccccc32)c1C#N here?
A: Its max response, negative = inhibition is inactive: 11.6%.

Q: How did the max response, negative = inhibition turn out when COc1cc(/C=C/C(=O)c2ccc([N+](=O)[O-])o2)ccc1O was run?
A: The max response, negative = inhibition was active: -98%.

Q: With Cc1nc2c(sc3nc4c(cc32)COC(C)(C)C4)c(=O)n1CC(=O)NCc1ccco1 as the compound, how does the max response, negative = inhibition read?
A: The max response, negative = inhibition was inactive: -14.2%.

Q: How did the max response, negative = inhibition turn out when CC(Sc1nnc2c(n1)[nH]c1ccccc12)C(=O)N(C)C1CCCCC1 (stereo unspecified) was run?
A: The max response, negative = inhibition was inactive: 12.7%.

Q: How did the max response, negative = inhibition turn out when O=C(COc1ccccc1)Nc1cc(Cl)ccc1Cl was run?
A: The max response, negative = inhibition was inconclusive: -32.2%.

Q: How did the max response, negative = inhibition turn out when COC(=O)CN1C(=O)C(O)(CC(=O)c2ccc(C)cc2)c2ccccc21 (stereo unspecified) was run?
A: The max response, negative = inhibition was inconclusive: -44.1%.

Q: Which max response, negative = inhibition does the source give for O=C(CCN1C(=O)CSc2ccccc21)Nc1ccc(C(F)(F)F)cc1 here?
A: Its max response, negative = inhibition is inconclusive: -45.1%.

Q: For CCOC(=O)C(c1ccccc1)C(Nc1ccc(Cl)c(Cl)c1)c1ccccn1 (stereo unspecified), which max response, negative = inhibition is on record?
A: Its max response, negative = inhibition is inactive: -4.87%.

Q: With Cc1ccc(CN2CCN(Cc3ccc(Oc4ncccn4)cc3)CC2CCO)cc1 (stereo unspecified) as the compound, how does the max response, negative = inhibition read?
A: The max response, negative = inhibition was inconclusive: -43.8%.

Q: Which max response, negative = inhibition does the source give for COc1ccc(NC(=O)C[C@H]2C(=O)N(CCc3ccccc3)C[C@@H]2Cc2ccccc2)cc1 here?
A: The max response, negative = inhibition was inactive: 2.31%.

Q: For Nc1nc(OCc2ccccc2)c2[nH]cnc2n1, which max response, negative = inhibition is on record?
A: Its max response, negative = inhibition is active: -121%.

Q: For CCN(CC)CCNC(=O)CSc1c2c(nc3cc(Cl)ccc13)CCCC2, which max response, negative = inhibition is on record?
A: Its max response, negative = inhibition is inconclusive: -36.1%.

Q: With O=C(Cc1c(O)c2ccccc2[nH]c1=O)NCc1ccccc1F as the compound, how does the max response, negative = inhibition read?
A: Its max response, negative = inhibition is inconclusive: -31.7%.

Q: How did the max response, negative = inhibition turn out when Cc1cc(C)c2sc(N(CCCN(C)C)C(=O)c3ccc(S(=O)(=O)N(C)C4CCCCC4)cc3)nc2c1 was run?
A: The max response, negative = inhibition was inconclusive: -31%.

Q: How did the max response, negative = inhibition turn out when CC(NC(=S)NCc1ccc(F)cc1)C12CC3CC(CC(C3)C1)C2 (stereo unspecified) was run?
A: The max response, negative = inhibition was inconclusive: -36.3%.

Q: With O=C(OCC(=O)N1CCCC1)c1cccs1 as the compound, how does the max response, negative = inhibition read?
A: The max response, negative = inhibition was inconclusive: -34.2%.

Q: Which max response, negative = inhibition does the source give for CC(C)=CCN1CCN(Cc2c[nH]c3ccccc23)CC1CCO (stereo unspecified) here?
A: Its max response, negative = inhibition is inconclusive: -41.3%.
